The other results are listed elsewhere or left out.
Legend:
Experiment in all cases: log2 fold change, soluble protein after heating vs DMSO (PISA); higher = thermal stabilisation; K562 lysate, 10 uM; active = over 0.2 and 3.5 SD of the protein, either way, in both replicates (recomputed)
nilotinib = compound: Cc1cn(-c2cc(NC(=O)c3ccc(C)c(Nc4nccc(-c5cccnc5)n4)c3)cc(C(F)(F)F)c2)cn1 [nilotinib]
Procedure, shortened: (§1)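 Values give the log-two fold change in thermal stability against solvent controls, from duplicates. Crude K562 extract at 1 mg/mL protein, made by dounce homogenisation in PBS pH 7.4 with 1 mM MgCl2, was treated with 10 μM compound for 30 min. After 3 min heating across 48°C-58°C, aliquots were pooled, adjusted to 0.5% NP-40 at 4°C and centrifuged at 21,000xg for 90 min. The supernatant was measured by TMTpro 16plex LC-MS/MS with channel sums equalised.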

Chains of the proteins cited; added tags and fusions are not shown. Lines headed by an entry give the natural chain unless they say otherwise; changes in a name come on top.
UniProt Q8IX90, whole entry, looked up: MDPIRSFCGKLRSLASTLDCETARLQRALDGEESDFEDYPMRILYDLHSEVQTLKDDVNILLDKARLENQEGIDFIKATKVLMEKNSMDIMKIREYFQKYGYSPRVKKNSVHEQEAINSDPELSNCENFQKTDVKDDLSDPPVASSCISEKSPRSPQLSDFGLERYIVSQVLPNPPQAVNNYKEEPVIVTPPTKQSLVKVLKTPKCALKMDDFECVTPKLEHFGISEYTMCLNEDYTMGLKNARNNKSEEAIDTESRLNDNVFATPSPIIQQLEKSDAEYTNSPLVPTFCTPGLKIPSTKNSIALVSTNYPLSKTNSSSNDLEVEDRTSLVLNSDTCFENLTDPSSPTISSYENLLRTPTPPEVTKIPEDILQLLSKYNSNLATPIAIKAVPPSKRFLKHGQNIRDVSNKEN
UniProt Q96BD8: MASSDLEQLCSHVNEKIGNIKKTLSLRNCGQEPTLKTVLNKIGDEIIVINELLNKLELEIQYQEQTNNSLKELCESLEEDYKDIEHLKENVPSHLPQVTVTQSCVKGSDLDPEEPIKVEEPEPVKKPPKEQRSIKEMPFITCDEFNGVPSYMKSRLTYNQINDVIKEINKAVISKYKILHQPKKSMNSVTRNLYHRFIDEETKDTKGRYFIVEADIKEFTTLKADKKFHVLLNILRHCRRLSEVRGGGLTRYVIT
UniProt Q15637: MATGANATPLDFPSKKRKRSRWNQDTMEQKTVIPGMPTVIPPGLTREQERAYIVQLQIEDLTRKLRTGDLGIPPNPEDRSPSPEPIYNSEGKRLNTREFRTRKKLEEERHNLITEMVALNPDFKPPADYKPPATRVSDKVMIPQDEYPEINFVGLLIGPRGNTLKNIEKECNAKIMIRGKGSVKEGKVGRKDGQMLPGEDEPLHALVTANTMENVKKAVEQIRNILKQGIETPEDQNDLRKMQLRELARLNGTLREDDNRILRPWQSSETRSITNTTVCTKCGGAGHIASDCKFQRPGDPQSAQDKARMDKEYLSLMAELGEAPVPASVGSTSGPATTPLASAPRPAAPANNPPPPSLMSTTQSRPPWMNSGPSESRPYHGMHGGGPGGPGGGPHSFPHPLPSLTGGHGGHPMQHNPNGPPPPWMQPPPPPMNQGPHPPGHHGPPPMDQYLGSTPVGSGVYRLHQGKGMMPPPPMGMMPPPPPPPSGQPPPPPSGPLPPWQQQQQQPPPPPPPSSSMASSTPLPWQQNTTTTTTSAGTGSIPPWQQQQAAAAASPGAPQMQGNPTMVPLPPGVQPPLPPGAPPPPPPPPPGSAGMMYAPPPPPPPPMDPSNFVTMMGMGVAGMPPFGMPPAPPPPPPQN
UniProt Q9NP31, whole entry, looked up: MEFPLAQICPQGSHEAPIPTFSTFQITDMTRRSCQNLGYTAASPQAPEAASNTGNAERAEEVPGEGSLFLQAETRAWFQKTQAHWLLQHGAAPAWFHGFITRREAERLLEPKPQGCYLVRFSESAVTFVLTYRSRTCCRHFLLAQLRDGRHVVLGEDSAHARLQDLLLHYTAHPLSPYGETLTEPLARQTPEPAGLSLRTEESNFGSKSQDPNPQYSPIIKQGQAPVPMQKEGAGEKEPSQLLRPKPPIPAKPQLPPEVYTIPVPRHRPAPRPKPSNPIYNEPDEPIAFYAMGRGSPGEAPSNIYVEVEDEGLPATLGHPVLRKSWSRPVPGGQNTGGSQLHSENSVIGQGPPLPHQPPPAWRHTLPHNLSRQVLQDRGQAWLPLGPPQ
UniProt Q96EQ0: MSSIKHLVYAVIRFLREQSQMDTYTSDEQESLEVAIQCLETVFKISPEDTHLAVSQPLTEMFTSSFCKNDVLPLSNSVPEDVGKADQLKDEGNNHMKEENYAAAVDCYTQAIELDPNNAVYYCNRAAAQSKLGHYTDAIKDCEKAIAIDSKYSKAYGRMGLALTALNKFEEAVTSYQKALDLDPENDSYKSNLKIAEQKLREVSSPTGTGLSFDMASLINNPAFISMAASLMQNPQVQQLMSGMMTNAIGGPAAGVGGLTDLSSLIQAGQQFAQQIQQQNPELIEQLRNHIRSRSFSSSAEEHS
UniProt P58004: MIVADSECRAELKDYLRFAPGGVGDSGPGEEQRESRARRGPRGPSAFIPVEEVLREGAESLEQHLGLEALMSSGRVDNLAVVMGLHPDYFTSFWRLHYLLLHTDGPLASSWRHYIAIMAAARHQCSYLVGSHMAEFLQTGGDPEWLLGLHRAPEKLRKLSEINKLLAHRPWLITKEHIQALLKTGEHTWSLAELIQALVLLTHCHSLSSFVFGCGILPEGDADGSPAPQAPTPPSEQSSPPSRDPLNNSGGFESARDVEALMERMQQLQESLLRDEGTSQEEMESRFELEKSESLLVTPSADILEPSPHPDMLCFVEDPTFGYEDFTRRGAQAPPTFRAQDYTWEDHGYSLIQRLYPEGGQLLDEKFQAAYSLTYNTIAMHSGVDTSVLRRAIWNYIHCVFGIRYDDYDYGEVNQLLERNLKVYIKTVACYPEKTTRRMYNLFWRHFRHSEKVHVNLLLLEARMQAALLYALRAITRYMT
UniProt O15047, whole entry, looked up: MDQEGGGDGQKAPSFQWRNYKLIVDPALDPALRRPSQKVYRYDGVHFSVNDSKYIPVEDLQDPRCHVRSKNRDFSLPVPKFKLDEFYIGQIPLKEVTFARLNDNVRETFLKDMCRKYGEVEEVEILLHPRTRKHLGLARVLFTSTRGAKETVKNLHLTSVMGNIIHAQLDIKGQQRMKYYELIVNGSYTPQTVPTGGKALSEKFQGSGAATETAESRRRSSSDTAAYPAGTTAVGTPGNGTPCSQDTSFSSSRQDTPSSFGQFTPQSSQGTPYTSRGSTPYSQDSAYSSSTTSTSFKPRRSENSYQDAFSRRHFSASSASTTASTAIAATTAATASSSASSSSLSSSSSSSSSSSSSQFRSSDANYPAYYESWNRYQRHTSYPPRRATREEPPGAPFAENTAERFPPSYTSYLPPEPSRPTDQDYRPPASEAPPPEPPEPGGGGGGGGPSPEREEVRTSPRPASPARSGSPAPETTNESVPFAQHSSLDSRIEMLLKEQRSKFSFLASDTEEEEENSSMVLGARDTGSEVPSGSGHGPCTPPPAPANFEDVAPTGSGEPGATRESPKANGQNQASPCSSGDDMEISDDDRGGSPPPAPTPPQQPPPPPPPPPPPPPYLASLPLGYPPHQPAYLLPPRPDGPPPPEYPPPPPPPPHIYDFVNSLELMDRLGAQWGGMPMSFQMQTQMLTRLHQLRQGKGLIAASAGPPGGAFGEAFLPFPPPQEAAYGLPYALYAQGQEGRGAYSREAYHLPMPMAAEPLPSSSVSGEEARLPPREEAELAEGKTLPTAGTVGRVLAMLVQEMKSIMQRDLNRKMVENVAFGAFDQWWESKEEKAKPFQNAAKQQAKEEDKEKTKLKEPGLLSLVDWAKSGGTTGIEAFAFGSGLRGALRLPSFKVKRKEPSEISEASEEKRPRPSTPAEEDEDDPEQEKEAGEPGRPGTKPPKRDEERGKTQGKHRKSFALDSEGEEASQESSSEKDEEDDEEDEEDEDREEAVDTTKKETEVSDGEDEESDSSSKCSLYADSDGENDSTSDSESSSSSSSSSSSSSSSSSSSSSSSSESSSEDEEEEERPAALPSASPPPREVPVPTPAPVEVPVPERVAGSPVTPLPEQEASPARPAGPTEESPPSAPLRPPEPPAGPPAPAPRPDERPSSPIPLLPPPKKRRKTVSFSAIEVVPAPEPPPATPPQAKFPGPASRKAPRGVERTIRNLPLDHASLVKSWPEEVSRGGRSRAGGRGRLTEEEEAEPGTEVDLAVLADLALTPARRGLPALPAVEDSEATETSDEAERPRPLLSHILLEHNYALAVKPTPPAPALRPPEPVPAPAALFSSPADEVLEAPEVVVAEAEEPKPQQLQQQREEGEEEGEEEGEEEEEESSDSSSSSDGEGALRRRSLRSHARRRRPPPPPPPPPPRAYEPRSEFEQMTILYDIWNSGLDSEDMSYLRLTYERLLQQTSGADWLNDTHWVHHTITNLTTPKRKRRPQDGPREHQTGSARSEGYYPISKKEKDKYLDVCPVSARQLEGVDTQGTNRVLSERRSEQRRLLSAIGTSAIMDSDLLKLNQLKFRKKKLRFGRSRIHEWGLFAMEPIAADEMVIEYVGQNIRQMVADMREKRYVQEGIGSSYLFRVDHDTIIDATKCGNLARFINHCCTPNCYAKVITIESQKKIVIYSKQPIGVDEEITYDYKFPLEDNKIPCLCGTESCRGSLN
UniProt Q9UP95: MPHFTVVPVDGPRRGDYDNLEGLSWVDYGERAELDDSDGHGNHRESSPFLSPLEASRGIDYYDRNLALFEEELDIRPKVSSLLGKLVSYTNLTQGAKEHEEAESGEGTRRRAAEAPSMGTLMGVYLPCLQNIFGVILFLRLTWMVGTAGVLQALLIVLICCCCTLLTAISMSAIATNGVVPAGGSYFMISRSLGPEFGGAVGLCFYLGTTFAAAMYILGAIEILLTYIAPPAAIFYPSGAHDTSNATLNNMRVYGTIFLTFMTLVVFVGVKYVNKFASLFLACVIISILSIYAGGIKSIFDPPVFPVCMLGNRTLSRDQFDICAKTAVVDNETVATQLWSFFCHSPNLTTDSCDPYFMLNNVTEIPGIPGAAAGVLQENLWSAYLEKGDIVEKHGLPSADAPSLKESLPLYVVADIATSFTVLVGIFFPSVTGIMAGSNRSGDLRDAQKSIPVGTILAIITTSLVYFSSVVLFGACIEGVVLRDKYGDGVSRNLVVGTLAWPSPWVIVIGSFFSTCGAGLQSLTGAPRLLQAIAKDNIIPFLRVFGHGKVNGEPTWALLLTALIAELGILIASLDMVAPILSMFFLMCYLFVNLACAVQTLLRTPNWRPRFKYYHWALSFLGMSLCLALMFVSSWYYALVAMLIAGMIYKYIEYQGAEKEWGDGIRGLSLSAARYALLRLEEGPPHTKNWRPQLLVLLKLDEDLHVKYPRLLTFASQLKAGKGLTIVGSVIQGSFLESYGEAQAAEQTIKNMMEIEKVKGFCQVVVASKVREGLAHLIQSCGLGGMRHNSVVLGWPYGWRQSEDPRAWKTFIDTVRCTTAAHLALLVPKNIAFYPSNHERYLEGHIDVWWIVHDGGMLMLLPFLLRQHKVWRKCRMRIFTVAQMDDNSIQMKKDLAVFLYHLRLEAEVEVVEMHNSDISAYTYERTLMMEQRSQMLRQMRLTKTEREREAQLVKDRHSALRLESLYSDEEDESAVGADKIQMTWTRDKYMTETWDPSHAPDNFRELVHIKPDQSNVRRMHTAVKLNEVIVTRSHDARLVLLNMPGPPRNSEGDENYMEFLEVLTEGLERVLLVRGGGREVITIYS
UniProt Q7L8J4: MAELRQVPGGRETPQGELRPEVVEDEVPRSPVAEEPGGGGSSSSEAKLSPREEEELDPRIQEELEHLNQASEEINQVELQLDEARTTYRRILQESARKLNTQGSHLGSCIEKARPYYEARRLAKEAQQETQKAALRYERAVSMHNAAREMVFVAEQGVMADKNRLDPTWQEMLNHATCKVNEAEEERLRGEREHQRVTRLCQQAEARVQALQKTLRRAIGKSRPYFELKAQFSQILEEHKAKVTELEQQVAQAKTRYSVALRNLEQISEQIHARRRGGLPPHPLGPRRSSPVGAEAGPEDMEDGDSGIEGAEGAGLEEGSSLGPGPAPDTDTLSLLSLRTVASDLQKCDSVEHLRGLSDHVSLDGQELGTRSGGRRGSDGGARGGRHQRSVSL
UniProt P43007: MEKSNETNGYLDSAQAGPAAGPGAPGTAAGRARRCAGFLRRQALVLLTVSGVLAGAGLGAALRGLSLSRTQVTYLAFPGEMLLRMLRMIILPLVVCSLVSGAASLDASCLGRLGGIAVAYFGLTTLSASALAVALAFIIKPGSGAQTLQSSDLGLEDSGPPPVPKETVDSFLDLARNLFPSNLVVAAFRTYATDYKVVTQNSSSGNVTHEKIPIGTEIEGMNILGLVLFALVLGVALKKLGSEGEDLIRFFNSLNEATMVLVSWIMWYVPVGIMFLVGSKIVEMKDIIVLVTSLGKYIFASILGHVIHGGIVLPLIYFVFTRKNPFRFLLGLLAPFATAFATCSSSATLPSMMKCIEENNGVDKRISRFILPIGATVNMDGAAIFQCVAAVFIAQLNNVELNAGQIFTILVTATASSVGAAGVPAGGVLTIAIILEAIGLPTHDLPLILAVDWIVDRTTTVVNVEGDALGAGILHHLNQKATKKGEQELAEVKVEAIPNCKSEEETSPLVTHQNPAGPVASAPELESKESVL
UniProt O75563, whole entry, looked up: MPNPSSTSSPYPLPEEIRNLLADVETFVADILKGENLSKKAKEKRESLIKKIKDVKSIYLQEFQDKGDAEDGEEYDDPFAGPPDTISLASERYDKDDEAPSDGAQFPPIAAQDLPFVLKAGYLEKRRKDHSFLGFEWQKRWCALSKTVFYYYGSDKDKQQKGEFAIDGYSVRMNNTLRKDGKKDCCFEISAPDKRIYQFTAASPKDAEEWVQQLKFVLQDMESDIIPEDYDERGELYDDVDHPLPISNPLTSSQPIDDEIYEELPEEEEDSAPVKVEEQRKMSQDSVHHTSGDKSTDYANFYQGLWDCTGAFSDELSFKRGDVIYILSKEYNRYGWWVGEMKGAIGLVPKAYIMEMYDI

[1] = compound: Cc1nc(Nc2n[nH]c3c2CN(C(=O)N[C@H](CN(C)C)c2ccccc2)C3(C)C)c2sccc2n1
Procedure, shortened: as §1

dasatinib = compound: Cc1nc(Nc2ncc(C(=O)Nc3c(C)cccc3Cl)s2)cc(N2CCN(CCO)CC2)n1 [dasatinib]
Procedure, shortened: as §1

[2] = compound: Cc1ncc(-c2ccnc(Nc3ccc(S(C)(=O)=O)cc3)n2)n1C(C)C
Procedure, shortened: as §1

[3] = compound: Cn1cc(-c2ccc3c(c2)CCN3C(=O)Cc2cccc(C(F)(F)F)c2)c2c(N)ncnc21
Procedure, shortened: as §1

quisinostat = compound: Cn1cc(CNCC2CCN(c3ncc(C(=O)NO)cn3)CC2)c2ccccc21 [quisinostat]
Procedure, shortened: as §1

tipifarnib = compound: Cn1cncc1[C@@](N)(c1ccc(Cl)cc1)c1ccc2c(c1)c(-c1cccc(Cl)c1)cc(=O)n2C [tipifarnib]
Procedure, shortened: as §1

[4] = compound: NC(=O)Nc1cc(-c2cccc(F)c2)sc1C(=O)N[C@H]1CCCNC1
Procedure, shortened: as §1

[5] = compound: NC(=O)c1cnc(N[C@@H]2CCCC[C@@H]2N)nc1Nc1cccc(-n2nccn2)c1
Procedure, shortened: as §1

[6] = compound: NC1(c2ccc(-c3nc4ccn5c(=O)[nH]nc5c4cc3-c3ccccc3)cc2)CCC1
Procedure, shortened: as §1

[7] = compound: NCC(=O)Nc1ccc(-n2nc(C(F)(F)F)cc2-c2ccc3c(ccc4ccccc43)c2)cc1
Procedure, shortened: as §1

vorinostat = compound: O=C(CCCCCCC(=O)Nc1ccccc1)NO [vorinostat]
Procedure, shortened: as §1

silmitasertib = compound: O=C(O)c1ccc2c(c1)nc(Nc1cccc(Cl)c1)c1ccncc12 [silmitasertib]
Procedure, shortened: as §1

[8] = compound: O=C1NC(=O)C(c2cnc3ccccn23)=C1c1cn2c3c(cc(F)cc13)CN(C(=O)N1CCCCC1)CC2
Procedure, shortened: as §1

entospletinib = compound: c1cn2cc(-c3ccc4cn[nH]c4c3)nc(Nc3ccc(N4CCOCC4)cc3)c2n1 [entospletinib]
Procedure, shortened: as §1

Row | Target | log2 fold change (nilotinib) | log2 fold change [1] | log2 fold change (dasatinib) | log2 fold change [2] | log2 fold change [3] | log2 fold change (quisinostat) | log2 fold change (tipifarnib) | log2 fold change [4] | log2 fold change [5] | log2 fold change [6] | log2 fold change [7] | log2 fold change (vorinostat) | log2 fold change (silmitasertib) | log2 fold change [8] | log2 fold change (entospletinib)
1 | SKA3 (UniProt Q8IX90) | inactive: -0.046 | inactive: -0.018 | inactive: -0.028 | inactive: 0.023 | inactive: 0.002 | inactive: -0.093 | inactive: -0.02 | inactive: 0.044 | inactive: 0.034 | inactive: -0.004 | inactive: -0.007 | active: -0.247 | inactive: 0 | inactive: -0.022 | inactive: 0.006
2 | SERPINB9 (UniProt P50453) | inactive: 0.013 | inactive: -0.001 | inactive: 0.027 | inactive: 0.018 | inactive: -0.031 | inactive: 0.005 | inactive: 0.02 | inactive: -0.008 | inactive: -0.011 | inactive: -0.016 | inactive: 0.012 | inactive: 0.085 | inactive: 0.008 | inactive: 0.022 | inactive: 0.021
3 | SKA1 (UniProt Q96BD8) | inactive: -0.095 | inactive: 0.052 | inactive: -0.034 | inactive: 0.023 | inactive: -0.032 | inactive: -0.104 | inactive: 0.039 | inactive: 0.038 | inactive: -0.042 | inactive: 0.014 | inactive: 0.057 | active: -0.586 | inactive: -0.036 | inactive: -0.07 | inactive: -0.021
4 | SH3BGRL (UniProt O75368) | inactive: 0.035 | inactive: 0.014 | inactive: 0.002 | inactive: 0.027 | inactive: -0.02 | inactive: 0 | inactive: 0.006 | inactive: -0.026 | inactive: -0.036 | inactive: 0.006 | inactive: -0.006 | inactive: 0.172 | inactive: -0.031 | inactive: 0.035 | inactive: -0.027
5 | SF1 isoform 5 (UniProt Q15637) | inactive: 0.012 | inactive: 0.014 | inactive: -0.025 | inactive: 0.009 | inactive: 0.008 | inactive: 0.027 | inactive: -0.004 | inactive: -0.062 | inactive: -0.01 | inactive: -0.013 | inactive: 0.029 | inactive: 0.087 | inactive: -0.014 | inactive: -0.022 | inactive: -0.04
6 | SERINC1 (UniProt Q9NRX5) | inactive: 0.068 | inactive: -0.019 | inactive: 0.004 | inactive: -0.009 | inactive: -0.069 | inactive: -0.125 | inactive: -0.126 | inactive: -0.013 | inactive: -0.024 | inactive: 0.019 | inactive: -0.012 | inactive: -0.254 | inactive: -0.026 | inactive: -0.058 | inactive: 0.028
7 | SH2D2A isoform 2 (UniProt Q9NP31) | inactive: -0.151 | inactive: -0.029 | inactive: -0.058 | inactive: 0.018 | inactive: -0.079 | inactive: 0.111 | inactive: -0.051 | inactive: 0.015 | inactive: 0.051 | inactive: 0.013 | inactive: 0.063 | inactive: 0.043 | inactive: 0.06 | inactive: 0.101 | inactive: -0.195
8 | SERINC3 (UniProt Q13530) | inactive: 0.022 | inactive: 0.023 | inactive: 0.026 | inactive: -0.006 | inactive: 0.009 | inactive: -0.131 | inactive: -0.036 | inactive: 0.04 | inactive: 0.008 | inactive: -0.083 | inactive: -0.027 | inactive: 0.019 | inactive: -0.012 | inactive: 0.017 | inactive: 0.024
9 | SGTB (UniProt Q96EQ0) | inactive: 0.057 | inactive: 0.012 | inactive: -0.008 | inactive: -0.023 | inactive: 0.012 | inactive: -0.012 | inactive: -0.013 | inactive: -0.056 | inactive: 0.02 | inactive: 0.02 | inactive: -0.025 | inactive: 0.093 | inactive: -0.03 | inactive: 0.01 | inactive: -0.017
10 | SESN2 (UniProt P58004) | inactive: 0.019 | inactive: 0.027 | inactive: -0.023 | inactive: 0.021 | inactive: 0.028 | inactive: -0.051 | inactive: 0.007 | inactive: 0.092 | inactive: 0.034 | inactive: -0.057 | inactive: 0.006 | active: -0.367 | inactive: 0.066 | inactive: 0.022 | inactive: 0.073
11 | SETD1A (UniProt O15047) | inactive: -0.03 | inactive: 0.022 | inactive: -0.032 | inactive: 0.022 | inactive: -0.022 | inactive: -0.023 | inactive: -0.009 | inactive: 0.009 | inactive: -0.023 | inactive: 0.029 | inactive: -0.006 | inactive: -0.11 | inactive: -0.02 | inactive: -0.011 | inactive: -0.035
12 | SIDT2 isoform 2 (UniProt Q8NBJ9) | inactive: 0.292 | inactive: 0.058 | inactive: -0.017 | inactive: -0.052 | inactive: -0.041 | inactive: -0.04 | inactive: -0.368 | inactive: 0.05 | inactive: -0.096 | inactive: -0.008 | inactive: -0.056 | inactive: 0.102 | inactive: -0.153 | inactive: 0.036 | inactive: -0.017
13 | SLC12A4 (UniProt Q9UP95) | inactive: -0.003 | inactive: -0.024 | inactive: 0.024 | inactive: 0.01 | inactive: -0.046 | inactive: 0.028 | inactive: -0.056 | inactive: 0.006 | inactive: 0.093 | inactive: 0.029 | inactive: 0.024 | inactive: 0.106 | inactive: -0.157 | inactive: 0.041 | inactive: -0.008
14 | SH3BP5L (UniProt Q7L8J4) | inactive: -0.056 | inactive: 0.037 | inactive: -0.023 | inactive: 0.04 | inactive: -0.025 | inactive: 0.007 | inactive: -0.01 | inactive: 0.007 | inactive: 0.013 | inactive: -0.033 | inactive: -0.003 | inactive: -0.025 | inactive: -0.068 | inactive: 0.051 | inactive: 0.009
15 | SERPINF1 (UniProt P36955) | inactive: -0.007 | inactive: -0.032 | inactive: 0.001 | inactive: 0.001 | inactive: -0.106 | inactive: 0.019 | inactive: -0.007 | inactive: -0.004 | inactive: -0.027 | inactive: 0.001 | inactive: 0.047 | inactive: 0.125 | inactive: 0.022 | inactive: 0.016 | inactive: -0.027
16 | SLC1A4 (UniProt P43007) | inactive: -0.006 | inactive: 0.009 | inactive: 0.051 | inactive: 0.006 | inactive: -0.026 | inactive: 0.025 | inactive: -0.014 | inactive: -0.028 | inactive: 0.021 | inactive: 0.021 | inactive: 0.032 | inactive: 0.036 | inactive: -0.022 | inactive: -0.08 | inactive: 0.001
17 | SH3GLB2 (UniProt Q9NR46) | inactive: 0.008 | inactive: -0.008 | inactive: 0 | inactive: -0.051 | inactive: 0.049 | inactive: 0.021 | inactive: -0.023 | inactive: -0.041 | inactive: 0.021 | inactive: 0.062 | inactive: -0.036 | inactive: -0.188 | inactive: 0.031 | inactive: -0.039 | inactive: -0.007
18 | SF3B2 (UniProt Q13435) | inactive: -0.022 | inactive: -0.004 | inactive: 0.004 | inactive: -0.034 | inactive: 0.003 | inactive: -0.005 | inactive: 0.003 | inactive: -0.003 | inactive: 0.008 | inactive: 0 | inactive: 0.003 | inactive: 0.028 | inactive: -0.042 | inactive: 0.011 | inactive: -0.036
19 | SLC17A5 (UniProt Q9NRA2) | inactive: -0.004 | inactive: 0.105 | inactive: -0.186 | inactive: -0.023 | inactive: 0.168 | – | inactive: 0.081 | – | inactive: -0.165 | inactive: -0.029 | inactive: 0.004 | inactive: 0.11 | inactive: -0.124 | – | inactive: 0.011
20 | SF3A1 (UniProt Q15459) | inactive: -0.009 | inactive: 0.008 | inactive: -0.007 | inactive: 0.008 | inactive: 0.01 | inactive: -0.026 | inactive: -0.01 | inactive: 0.011 | inactive: -0.003 | inactive: 0.007 | inactive: -0.003 | inactive: 0.023 | inactive: -0.036 | inactive: -0.024 | inactive: 0.002
21 | SKAP2 (UniProt O75563) | inactive: 0.001 | inactive: 0.021 | inactive: 0.015 | inactive: 0.019 | inactive: 0.013 | inactive: -0.1 | inactive: 0.032 | inactive: -0.004 | inactive: 0 | inactive: -0.005 | inactive: 0.041 | inactive: -0.024 | inactive: -0.043 | inactive: 0.01 | inactive: -0.068

Single values from the list:
Value for SF3B2 (UniProt Q13435) under log2 fold change (vorinostat): inactive: 0.028
Value for SLC1A4 (UniProt P43007) under log2 fold change [1]: inactive: 0.009

— the supplement of paper PMC10849652
